From PubChem BioAssay (NCATS)
The list shows a part of the results. These are further read-outs of the screen, such as a control signal, another cell line or another target. No call is given for them. The list favours compounds with an active or inconclusive main result. Potencies come from curve fits of mixed quality, noted in brackets.

Test: qHTS for identification of novel therapeutic agents for treatment of microphthalmiaassociated transcription factor (MiT) renal cell carcinoma (RCC) (AID 1963991)
Conditions: TFE3-RCC viability, CellTiter-Glo, 48 h; measured here: UOK124 cell viability
Outline: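 Three TFE3-fusion RCC lines (UOK109, UOK124, UOK145), 500 cells/well in complete medium, were treated with MIPE 4.0 compounds for 48 hours at 37 C. Viability was by CellTiter-Glo luminescence, normalized to DMSO (100%) and empty wells (0%); curves fitted over 11 concentrations.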

Structure (SMILES)	AC50
Nc1nccc(Oc2ccc(NC(=O)c3c[nH]cc(-c4ccc(F)cc4)c3=O)cc2F)c1Cl	23.5 µM [falling, partial curve]
Nc1ncnc2c1c(-c1cccc(OCc3ccccc3)c1)cn2C1CC(CN2CCC2)C1 (stereo unspecified)	14.8 µM [falling, partial curve]
CC[C@@H]1C(=O)N(C)c2cnc(Nc3ccc(C(=O)NC4CCN(C)CC4)cc3OC)nc2N1C1CCCC1	1.05 µM [falling, full curve]
CCS(=O)(=O)c1cccc(-c2cc(C(=O)NC3CCN(C)CC3)c(C)c3[nH]c4ncc(C)cc4c23)c1	6.62 µM [falling, partial curve]
CNC1CCC(N(Cc2cccc(-c3ccncc3)c2)C(=O)c2sc3ccccc3c2Cl)CC1 (stereo unspecified)	10.5 µM [falling, full curve]
CC(C)CNc1ccnc(NCc2csc(-c3ccccc3)n2)n1	16.6 µM [falling, partial curve]
CN1CCN(CCOc2cc(OC3CCOCC3)c3c(Nc4c(Cl)ccc5c4OCO5)ncnc3c2)CC1	16.6 µM [falling, partial curve]
Cc1cnc(Nc2ccc(OCCN3CCCC3)cc2)nc1Nc1cccc(S(=O)(=O)NC(C)(C)C)c1	26.4 µM [falling, partial curve, poor fit]
CCn1cc(-c2ccnc3[nH]c(-c4cccc(CN(C)C)c4)cc23)c(-c2ccc(NC(=O)N(C)C)cc2)n1	11.8 µM [falling, partial curve]
NC(=O)c1cnc(-c2ccc(C3(N)CCC3)cc2)c(-c2ccccc2)c1	4.18 µM [falling, partial curve, poor fit]
C=CC(=O)Nc1cccc(Oc2nc(Nc3ccc(N4CCN(C)CC4)cc3)ncc2Cl)c1	20.9 µM [falling, partial curve]

Same assay, conditions: TFE3-RCC viability, CellTiter-Glo, 48 h; measured here: UOK145 Z-AUC; stronger effect = lower value

Structure (SMILES)	z-score
Nc1nccc(Oc2ccc(NC(=O)c3c[nH]cc(-c4ccc(F)cc4)c3=O)cc2F)c1Cl	-0.0965
Nc1ncnc2c1c(-c1cccc(OCc3ccccc3)c1)cn2C1CC(CN2CCC2)C1 (stereo unspecified)	0.751
CCS(=O)(=O)c1cccc(-c2cc(C(=O)NC3CCN(C)CC3)c(C)c3[nH]c4ncc(C)cc4c23)c1	-0.625
CNC1CCC(N(Cc2cccc(-c3ccncc3)c2)C(=O)c2sc3ccccc3c2Cl)CC1 (stereo unspecified)	0.0924
CC(C)CNc1ccnc(NCc2csc(-c3ccccc3)n2)n1	-0.289
CN1CCN(CCOc2cc(OC3CCOCC3)c3c(Nc4c(Cl)ccc5c4OCO5)ncnc3c2)CC1	-0.208
COc1cc2c(cc1OC)CN(CCc1ccc(NC(=O)c3cccc4c(=O)c5cccc(OC)c5[nH]c34)cc1)CC2	0.289
Cc1cnc(Nc2ccc(OCCN3CCCC3)cc2)nc1Nc1cccc(S(=O)(=O)NC(C)(C)C)c1	0.852
CCn1cc(-c2ccnc3[nH]c(-c4cccc(CN(C)C)c4)cc23)c(-c2ccc(NC(=O)N(C)C)cc2)n1	-0.197
NC(=O)c1cnc(-c2ccc(C3(N)CCC3)cc2)c(-c2ccccc2)c1	0.355

Rewritten with bars between the fields: 2 of the compounds above.
Structure (SMILES) | z-score
CN1CCN(CCOc2cc(OC3CCOCC3)c3c(Nc4c(Cl)ccc5c4OCO5)ncnc3c2)CC1 | -0.208
CCn1cc(-c2ccnc3[nH]c(-c4cccc(CN(C)C)c4)cc23)c(-c2ccc(NC(=O)N(C)C)cc2)n1 | -0.197
